“And” between values parts separate entries of the source, which are not always exact repeats. Equal values may be shown once.
Tested on: endotoxin-induced lung injury
Experiment: porcine model of LPS-induced acute lung injury: haemodynamics, ventilation/mechanics, blood gases, P/F, chemistry, temperature, survival
Assay type: in vivo, pig
Conditions: individual animals, listed as sEH-i 950
Method: The animals were bred for purpose at the Forslunda Agricultural School in Umeå, Sweden. The pigs were pairwise kept in 8 m^2 pens before start of experiments and were fed twice daily with a commercially available pig diet without antimicrobials, and with free access to water. Photoperiods were 12:12 h light:dark. Room temperature in their stall was 20 °C ± 1 °C.
After overnight fasting, but with free access to water and hay, animals were pre-medicated with ketamine (Ketaminol vet® 100 mg/mL; Intervet International B.V, Boxmeer, Netherlands), xylazine (Rompun® vet 20 mg/mL; Bayer Animal Health, Copenhagen, Denmark) and atropine (Atropin Mylan 0.5 mg/mL; Mylan AB, Stockholm, Sweden) by intramuscular injection before an auricular vein was cannulated. […]
All animals were monitored with pulse oximetry, heart rate, ECG, systemic arterial blood pressure (ABP), pulmonary arterial pressure (PAP), central venous pressure (CVP) temperature, tidal volumes, respiratory rate and end tidal carbon dioxide. At baseline, and at 3 h, 6 h and at the end of the experiment, pulmonary capillary wedge pressure (PCWP) was measured together with arterial and venous blood gas analyses, as well as cardiac output calculations. […]

Compound: CCOCCOCCOCCCCCNC(=O)NC12CC3CC(CC(C3)C1)C2 [Compound 950]
- Temp 3 h (3 h): 37.6 °C and 39.3 °C and 37.8 °C and 38.8 °C and 39.2 °C and 38.9 °C and 39.6 °C and 37.5 °C and 38.3 °C and 38.1 °C
- Temp 6 h (6 h): 39.1 °C and 38.3 °C and 39.8 °C and 40.5 °C and 38.7 °C and 40.3 °C and 37.4 °C and 38.2 °C

Reference: article PMC12457078, “Inhibition of soluble epoxide hydrolase in endotoxin induced pig lung injury” (Frontiers in Pharmacology, 2025)
